Experimental data: paper PMC9458672
Results are given in words; binding and its absence hold for the method and conditions named.

Chains of the proteins cited; added tags and fusions are not shown.
UniProt Q15286: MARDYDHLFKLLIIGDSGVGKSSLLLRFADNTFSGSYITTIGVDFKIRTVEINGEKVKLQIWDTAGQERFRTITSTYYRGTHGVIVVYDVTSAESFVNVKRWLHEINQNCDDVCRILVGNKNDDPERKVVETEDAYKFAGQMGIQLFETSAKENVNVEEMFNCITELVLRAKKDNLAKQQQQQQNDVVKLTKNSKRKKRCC
UniProt P62330: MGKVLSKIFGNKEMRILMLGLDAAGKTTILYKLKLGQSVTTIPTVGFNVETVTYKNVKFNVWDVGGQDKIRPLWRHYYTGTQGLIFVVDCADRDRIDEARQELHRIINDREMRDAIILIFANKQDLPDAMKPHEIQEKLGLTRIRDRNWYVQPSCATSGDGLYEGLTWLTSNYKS
UniProt Q01968: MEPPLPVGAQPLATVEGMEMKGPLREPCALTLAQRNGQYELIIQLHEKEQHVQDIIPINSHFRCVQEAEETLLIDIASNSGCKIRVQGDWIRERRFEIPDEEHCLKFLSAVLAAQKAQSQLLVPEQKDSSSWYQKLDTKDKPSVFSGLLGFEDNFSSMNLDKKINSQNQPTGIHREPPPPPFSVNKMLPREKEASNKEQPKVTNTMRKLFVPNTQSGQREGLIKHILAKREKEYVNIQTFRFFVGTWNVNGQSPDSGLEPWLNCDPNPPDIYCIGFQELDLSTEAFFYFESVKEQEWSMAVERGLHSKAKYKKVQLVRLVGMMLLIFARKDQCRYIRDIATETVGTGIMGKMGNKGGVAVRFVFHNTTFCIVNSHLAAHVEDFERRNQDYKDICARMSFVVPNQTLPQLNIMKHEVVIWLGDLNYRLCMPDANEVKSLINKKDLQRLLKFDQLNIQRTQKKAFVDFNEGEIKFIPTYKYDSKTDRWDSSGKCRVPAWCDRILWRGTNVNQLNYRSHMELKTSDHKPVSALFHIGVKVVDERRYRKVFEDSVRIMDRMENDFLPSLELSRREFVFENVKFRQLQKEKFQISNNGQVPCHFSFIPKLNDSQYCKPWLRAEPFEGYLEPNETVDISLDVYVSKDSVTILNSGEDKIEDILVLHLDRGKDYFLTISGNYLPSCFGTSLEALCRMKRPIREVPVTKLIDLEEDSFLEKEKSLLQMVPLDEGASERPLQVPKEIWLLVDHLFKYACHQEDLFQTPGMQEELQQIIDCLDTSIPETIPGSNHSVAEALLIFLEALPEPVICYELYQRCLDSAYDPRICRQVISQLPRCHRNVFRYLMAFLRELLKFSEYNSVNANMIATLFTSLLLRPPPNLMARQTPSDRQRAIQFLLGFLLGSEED

Key:
[1] = biological target: T1, mitochondrial-targeted ACAP2 (UniProt Q15057); assay: mitochondrial mislocalisation (Tom20 tethering) by fluorescence microscopy; bait tethered to mitochondria by a Tom20 tag and co-expressed with the candidate partner (or stained for the endogenous one) in HUVECs; relocation of the partner to mitochondria read by imaging and Pearson's coefficient
T1 sequence: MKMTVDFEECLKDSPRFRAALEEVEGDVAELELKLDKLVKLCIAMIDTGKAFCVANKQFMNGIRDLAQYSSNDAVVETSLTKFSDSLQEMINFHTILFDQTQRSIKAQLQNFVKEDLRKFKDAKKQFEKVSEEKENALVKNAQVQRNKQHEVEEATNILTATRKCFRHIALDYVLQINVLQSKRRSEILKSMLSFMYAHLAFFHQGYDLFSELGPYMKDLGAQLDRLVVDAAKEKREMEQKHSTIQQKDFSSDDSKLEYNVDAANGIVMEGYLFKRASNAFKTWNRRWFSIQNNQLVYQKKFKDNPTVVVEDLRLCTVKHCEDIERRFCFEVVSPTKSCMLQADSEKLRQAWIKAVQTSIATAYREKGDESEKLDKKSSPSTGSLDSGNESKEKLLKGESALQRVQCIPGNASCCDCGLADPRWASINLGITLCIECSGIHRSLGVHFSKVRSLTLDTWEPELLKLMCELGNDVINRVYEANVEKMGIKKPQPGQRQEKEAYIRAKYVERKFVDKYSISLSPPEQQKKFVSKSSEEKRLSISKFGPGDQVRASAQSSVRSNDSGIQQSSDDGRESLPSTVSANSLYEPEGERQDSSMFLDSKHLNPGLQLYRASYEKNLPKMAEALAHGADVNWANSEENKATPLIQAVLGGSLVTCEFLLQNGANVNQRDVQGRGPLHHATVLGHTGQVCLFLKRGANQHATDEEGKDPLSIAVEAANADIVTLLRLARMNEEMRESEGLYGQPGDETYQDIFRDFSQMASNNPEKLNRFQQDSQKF

[2] = biological target: Tom20-Rab35 wild-type (mitochondrial-targeted Rab35) (UniProt Q15286); assay: as above
[3] = biological target: Tom20-GFP-Rab35 co-expressed with TagRFP-ACAP2 (Rab35/ACAP2 complex at mitochondria) (UniProt Q15286); assay: mitochondrial mislocalisation (Tom20 tethering) by fluorescence microscopy; three proteins expressed together in HUVECs: Tom20-GFP-Rab35, TagRFP-ACAP2 and HA-Arf6; relocation of HA-Arf6 to mitochondria read by imaging

binding [1]	binding [2]	binding [3]	Substance
no binding	no binding	no binding	Arf6 (overexpressed) (from UniProt P62330 1-175)
–	no binding	–	OCRL (tagged, overexpressed) (from UniProt Q01968 1-901)
